Source: PMC4742909
Results are given in words; binding and its absence hold for the method and conditions named. Binding seen in cells or lysates may run through a third protein. For some assays here: Binding calls can cover weak binding; strength is not graded here.

Columns and labels:
[1] = target: T1, ARHGAP33 (mouse (endogenous in hippocampus)) (UniProt Q80YF9); experiment: co-IP; anti-ARHGAP33 immunoprecipitates from hippocampal lysates of WT and ARHGAP33 KO mice; TNE buffer, antibody on ice 1 h, protein G-sepharose, five washes; immunoblot
T1 sequence: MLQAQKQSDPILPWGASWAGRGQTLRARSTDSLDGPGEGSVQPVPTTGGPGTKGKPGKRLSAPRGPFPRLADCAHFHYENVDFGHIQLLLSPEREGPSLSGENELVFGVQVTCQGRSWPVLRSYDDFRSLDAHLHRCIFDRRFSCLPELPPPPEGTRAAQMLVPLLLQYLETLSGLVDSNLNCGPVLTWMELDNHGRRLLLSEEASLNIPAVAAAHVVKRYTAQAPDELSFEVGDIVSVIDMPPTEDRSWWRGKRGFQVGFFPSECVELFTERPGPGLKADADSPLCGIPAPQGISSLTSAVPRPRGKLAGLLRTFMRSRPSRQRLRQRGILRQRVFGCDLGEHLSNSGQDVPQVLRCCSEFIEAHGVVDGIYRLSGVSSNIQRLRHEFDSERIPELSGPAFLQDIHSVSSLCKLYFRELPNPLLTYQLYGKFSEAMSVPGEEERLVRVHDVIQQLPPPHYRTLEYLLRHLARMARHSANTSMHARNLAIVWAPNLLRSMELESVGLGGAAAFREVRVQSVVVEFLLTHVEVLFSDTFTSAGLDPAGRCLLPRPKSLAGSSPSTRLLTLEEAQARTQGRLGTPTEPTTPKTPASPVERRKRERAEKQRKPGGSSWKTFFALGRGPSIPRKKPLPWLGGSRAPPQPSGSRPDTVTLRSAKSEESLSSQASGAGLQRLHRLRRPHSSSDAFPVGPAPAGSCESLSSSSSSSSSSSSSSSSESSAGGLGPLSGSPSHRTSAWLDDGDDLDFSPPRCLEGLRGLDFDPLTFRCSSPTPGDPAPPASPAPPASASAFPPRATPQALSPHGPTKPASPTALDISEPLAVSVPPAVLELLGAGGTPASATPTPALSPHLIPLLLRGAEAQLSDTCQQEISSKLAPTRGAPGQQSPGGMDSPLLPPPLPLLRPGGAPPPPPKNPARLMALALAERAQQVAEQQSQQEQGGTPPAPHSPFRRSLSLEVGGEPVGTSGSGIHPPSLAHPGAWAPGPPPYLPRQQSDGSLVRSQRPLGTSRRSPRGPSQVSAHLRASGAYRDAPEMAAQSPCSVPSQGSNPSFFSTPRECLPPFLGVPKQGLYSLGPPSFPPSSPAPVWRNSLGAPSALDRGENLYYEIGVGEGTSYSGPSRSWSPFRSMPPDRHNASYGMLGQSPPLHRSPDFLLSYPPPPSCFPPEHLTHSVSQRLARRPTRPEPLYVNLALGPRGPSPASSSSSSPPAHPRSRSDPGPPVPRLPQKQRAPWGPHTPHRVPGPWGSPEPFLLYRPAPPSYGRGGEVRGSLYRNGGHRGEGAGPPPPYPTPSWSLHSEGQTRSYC

[2] = target: T2, ARHGAP33 (expressed from pME-ARHGAP33) (UniProt Q80YF9); experiment: co-IP; HEK293T cells transfected with ARHGAP33, SORT1 and TrkB as indicated; TNE lysates, protein G-sepharose; immunoblot
T2 sequence: T1 sequence

binding [1]	binding [2]	Substance
no binding	–	Rab27 (mouse (endogenous in hippocampus))
–	binds	SORT1 (cDNA from Origene in pME18S) (receptor)
